# According to the supplement of paper PMC10849652:
# By UniProt entry, the sequences of proteins in these tests, tags left out. Where a name states a change or a piece, a line headed by the entry shows the natural chain unless it says otherwise.
# UniProt Q06547, whole entry, looked up: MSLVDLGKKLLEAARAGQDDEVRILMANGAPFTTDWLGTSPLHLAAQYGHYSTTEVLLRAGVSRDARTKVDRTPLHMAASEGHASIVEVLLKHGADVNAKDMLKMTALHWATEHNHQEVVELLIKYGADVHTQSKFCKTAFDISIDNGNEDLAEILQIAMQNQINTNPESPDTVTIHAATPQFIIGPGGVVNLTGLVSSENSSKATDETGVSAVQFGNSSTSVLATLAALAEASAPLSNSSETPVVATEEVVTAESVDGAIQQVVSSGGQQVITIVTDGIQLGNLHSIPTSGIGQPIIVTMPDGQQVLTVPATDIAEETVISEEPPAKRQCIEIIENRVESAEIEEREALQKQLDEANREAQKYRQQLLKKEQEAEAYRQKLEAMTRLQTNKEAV
# UniProt P11413, whole entry, looked up: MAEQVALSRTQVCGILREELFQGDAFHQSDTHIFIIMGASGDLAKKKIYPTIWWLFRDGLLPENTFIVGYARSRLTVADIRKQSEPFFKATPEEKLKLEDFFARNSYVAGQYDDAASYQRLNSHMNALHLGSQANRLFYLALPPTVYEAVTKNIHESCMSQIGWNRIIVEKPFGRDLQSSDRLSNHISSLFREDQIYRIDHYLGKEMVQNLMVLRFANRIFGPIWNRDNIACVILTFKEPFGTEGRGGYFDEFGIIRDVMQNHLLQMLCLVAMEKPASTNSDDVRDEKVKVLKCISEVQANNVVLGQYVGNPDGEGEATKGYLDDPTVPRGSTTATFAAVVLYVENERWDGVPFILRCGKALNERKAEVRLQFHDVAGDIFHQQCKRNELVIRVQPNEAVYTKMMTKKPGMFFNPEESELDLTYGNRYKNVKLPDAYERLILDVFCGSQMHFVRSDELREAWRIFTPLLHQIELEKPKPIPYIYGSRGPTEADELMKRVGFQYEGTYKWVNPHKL
# UniProt O14772: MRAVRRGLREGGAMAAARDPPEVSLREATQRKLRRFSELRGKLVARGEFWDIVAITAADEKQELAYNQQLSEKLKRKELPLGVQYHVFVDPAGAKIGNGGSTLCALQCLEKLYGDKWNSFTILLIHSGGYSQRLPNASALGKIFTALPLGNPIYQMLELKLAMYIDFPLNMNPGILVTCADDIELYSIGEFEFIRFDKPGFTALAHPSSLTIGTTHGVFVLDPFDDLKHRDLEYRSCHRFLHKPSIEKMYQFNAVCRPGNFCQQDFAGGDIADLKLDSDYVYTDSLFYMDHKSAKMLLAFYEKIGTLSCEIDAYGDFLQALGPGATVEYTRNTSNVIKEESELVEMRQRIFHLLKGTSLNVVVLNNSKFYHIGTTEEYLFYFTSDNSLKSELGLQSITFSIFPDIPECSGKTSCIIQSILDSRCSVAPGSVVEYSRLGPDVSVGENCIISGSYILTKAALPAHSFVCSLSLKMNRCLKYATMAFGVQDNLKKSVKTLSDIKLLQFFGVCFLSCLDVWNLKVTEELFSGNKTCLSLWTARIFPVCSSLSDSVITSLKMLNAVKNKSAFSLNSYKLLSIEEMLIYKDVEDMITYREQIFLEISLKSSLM
# UniProt P34059: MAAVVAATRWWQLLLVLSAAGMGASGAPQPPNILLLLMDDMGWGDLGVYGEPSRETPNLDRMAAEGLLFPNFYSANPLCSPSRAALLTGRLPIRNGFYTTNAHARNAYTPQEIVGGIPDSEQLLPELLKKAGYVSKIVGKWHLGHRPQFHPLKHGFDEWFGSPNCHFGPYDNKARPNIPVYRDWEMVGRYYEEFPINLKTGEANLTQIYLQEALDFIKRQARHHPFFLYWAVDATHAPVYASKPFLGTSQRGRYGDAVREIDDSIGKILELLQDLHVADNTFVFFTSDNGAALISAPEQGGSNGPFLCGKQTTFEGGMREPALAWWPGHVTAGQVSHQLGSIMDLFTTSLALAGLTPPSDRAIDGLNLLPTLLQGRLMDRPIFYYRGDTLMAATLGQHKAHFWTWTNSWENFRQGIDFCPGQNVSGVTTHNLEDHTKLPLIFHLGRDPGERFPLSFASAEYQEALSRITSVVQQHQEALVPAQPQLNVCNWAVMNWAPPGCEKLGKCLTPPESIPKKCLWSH
# UniProt P48507: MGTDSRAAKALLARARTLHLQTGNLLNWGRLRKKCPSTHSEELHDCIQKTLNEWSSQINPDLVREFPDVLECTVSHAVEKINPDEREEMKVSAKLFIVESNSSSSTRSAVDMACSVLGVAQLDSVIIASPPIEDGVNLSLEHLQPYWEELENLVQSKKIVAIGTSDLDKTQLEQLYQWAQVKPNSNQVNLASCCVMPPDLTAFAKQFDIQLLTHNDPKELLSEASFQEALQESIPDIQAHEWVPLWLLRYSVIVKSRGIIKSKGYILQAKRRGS
# UniProt P04406: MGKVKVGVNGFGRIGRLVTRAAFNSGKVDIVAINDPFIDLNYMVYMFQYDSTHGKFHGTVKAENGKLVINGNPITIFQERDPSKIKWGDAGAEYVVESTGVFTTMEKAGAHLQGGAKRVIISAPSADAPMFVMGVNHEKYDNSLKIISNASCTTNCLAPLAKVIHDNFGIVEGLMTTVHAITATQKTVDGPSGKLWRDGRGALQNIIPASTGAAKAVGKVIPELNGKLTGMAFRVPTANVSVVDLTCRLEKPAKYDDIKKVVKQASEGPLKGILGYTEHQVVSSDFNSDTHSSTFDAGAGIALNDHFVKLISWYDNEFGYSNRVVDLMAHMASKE
# UniProt P60520, whole entry, looked up: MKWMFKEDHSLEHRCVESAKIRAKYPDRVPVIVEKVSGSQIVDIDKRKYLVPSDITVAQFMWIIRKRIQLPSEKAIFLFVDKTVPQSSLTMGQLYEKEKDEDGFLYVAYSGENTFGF
# UniProt Q9C0B1, whole entry, looked up: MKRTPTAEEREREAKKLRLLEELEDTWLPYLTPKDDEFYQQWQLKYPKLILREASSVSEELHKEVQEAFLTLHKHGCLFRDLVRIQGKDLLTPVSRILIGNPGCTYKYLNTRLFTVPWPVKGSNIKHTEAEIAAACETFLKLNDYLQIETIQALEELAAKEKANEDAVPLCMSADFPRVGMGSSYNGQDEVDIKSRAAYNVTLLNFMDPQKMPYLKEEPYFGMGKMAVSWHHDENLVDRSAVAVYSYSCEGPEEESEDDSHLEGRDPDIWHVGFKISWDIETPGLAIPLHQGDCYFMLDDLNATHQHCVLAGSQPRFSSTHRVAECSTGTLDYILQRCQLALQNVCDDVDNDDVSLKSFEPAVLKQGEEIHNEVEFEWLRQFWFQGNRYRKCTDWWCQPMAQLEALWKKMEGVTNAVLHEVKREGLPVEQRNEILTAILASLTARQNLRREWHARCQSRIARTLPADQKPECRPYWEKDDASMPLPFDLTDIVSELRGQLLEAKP
# UniProt Q10472: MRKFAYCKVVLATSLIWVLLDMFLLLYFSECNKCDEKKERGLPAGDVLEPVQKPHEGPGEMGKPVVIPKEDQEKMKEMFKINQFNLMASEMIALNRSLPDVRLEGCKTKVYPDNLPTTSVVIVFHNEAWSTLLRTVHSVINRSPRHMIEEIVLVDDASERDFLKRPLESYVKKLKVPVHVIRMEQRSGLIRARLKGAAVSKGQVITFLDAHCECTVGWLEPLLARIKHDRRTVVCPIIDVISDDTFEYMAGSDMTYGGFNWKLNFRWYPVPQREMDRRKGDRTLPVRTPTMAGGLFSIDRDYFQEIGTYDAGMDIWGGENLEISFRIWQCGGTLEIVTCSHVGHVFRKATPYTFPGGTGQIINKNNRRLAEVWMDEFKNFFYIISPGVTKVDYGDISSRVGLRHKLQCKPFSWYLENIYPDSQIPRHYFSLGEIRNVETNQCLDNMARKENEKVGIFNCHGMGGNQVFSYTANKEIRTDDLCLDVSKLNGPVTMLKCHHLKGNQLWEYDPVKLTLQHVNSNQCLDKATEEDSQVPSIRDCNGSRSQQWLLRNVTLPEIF
# UniProt O14893: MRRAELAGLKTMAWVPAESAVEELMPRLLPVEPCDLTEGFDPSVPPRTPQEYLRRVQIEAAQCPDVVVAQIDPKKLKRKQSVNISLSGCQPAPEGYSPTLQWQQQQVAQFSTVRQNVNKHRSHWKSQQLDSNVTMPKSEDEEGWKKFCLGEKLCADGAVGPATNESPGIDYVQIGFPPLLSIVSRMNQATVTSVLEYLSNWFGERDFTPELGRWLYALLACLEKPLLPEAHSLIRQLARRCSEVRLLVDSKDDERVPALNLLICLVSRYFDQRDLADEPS
# UniProt P04062: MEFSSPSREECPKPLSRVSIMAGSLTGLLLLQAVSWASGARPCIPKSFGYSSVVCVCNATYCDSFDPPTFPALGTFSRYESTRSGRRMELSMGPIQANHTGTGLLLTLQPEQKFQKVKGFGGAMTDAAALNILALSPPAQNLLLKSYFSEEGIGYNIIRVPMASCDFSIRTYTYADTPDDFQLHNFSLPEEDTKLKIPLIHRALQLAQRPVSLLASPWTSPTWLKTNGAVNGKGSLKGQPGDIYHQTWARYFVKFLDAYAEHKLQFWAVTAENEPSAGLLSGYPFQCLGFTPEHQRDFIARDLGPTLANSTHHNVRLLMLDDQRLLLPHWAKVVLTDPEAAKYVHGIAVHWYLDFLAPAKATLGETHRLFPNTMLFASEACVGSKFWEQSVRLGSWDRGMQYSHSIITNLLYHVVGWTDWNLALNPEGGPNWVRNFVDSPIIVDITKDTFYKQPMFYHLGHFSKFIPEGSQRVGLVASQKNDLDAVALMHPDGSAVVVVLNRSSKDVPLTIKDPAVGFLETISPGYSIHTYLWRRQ
# UniProt Q10471: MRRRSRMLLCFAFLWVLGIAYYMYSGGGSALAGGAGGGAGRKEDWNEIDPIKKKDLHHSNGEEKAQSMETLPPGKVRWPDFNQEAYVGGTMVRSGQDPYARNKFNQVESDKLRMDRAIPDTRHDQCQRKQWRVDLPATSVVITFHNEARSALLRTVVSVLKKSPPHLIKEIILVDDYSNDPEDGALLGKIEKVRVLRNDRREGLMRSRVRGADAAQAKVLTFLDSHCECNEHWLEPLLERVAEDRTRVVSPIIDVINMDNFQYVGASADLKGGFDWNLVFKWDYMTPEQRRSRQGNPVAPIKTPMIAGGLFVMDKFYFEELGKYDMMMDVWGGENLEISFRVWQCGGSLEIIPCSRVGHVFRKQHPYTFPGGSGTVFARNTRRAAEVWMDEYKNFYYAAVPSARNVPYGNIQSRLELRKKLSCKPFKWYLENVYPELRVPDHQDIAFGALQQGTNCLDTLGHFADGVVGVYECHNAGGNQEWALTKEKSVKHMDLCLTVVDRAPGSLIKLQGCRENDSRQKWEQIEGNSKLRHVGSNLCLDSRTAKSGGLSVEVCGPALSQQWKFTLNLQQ
# UniProt O43524: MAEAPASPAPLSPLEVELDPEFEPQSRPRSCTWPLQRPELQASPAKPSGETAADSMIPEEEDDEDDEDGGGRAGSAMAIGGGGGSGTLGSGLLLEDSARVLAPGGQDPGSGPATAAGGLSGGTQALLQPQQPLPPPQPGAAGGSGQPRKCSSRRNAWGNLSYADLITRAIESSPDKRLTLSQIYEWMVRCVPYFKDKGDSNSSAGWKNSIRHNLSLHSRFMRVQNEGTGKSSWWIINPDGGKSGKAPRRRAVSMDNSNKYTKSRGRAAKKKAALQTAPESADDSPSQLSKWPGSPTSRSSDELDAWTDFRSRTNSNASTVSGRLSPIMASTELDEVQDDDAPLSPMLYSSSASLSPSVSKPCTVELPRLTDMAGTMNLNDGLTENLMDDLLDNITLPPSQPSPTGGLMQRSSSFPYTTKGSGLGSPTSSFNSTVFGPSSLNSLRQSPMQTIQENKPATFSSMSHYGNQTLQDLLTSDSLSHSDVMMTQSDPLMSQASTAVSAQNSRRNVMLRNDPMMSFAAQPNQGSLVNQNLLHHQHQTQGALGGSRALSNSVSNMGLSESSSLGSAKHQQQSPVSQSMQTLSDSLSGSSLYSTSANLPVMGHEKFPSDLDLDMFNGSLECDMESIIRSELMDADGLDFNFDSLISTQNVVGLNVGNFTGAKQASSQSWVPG
# UniProt Q6ZNA5: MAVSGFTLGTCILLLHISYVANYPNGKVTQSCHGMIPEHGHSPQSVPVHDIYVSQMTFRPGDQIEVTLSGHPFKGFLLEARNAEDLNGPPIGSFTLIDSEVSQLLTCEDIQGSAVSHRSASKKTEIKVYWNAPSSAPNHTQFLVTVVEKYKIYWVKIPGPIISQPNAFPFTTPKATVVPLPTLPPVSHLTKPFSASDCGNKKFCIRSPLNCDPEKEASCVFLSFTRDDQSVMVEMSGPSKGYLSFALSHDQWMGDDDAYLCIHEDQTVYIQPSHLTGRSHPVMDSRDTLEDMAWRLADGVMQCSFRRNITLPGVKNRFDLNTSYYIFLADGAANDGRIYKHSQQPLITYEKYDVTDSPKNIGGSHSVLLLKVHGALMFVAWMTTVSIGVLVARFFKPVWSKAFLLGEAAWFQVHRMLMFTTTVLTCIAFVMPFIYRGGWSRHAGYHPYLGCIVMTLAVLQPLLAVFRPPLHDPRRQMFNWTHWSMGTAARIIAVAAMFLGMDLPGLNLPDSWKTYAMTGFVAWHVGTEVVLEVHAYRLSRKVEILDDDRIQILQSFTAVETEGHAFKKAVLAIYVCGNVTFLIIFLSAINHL
# This is one part of the list.
# Experiments:
# Assay in all cases: log2 fold change, soluble protein after heating vs DMSO (PISA); higher = thermal stabilisation; K562 lysate, 10 uM; active = over 0.2 and 3.5 SD of the protein, either way, in both replicates (recomputed)
# ibrutinib = compound: C=CC(=O)N1CCC[C@@H](n2nc(-c3ccc(Oc4ccccc4)cc3)c3c(N)ncnc32)C1 [ibrutinib]
# Method in brief: (§1)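 Thermal stability, expressed as log-two fold change relative to solvent controls, is given from duplicates. Crude K562 extract in PBS pH 7.4 with 1 mM MgCl2, at 1 mg/mL protein, was treated with 10 μM compound for 30 min and heated in aliquots for 3 min across 48°C-58°C. After pooling, adjustment to 0.5% NP-40 at 4°C and centrifugation at 21,000xg for 90 min, supernatant protein was measured by TMTpro 16plex LC-MS/MS with channel sums equalised.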
# [1] = compound: CC(=O)c1cnc2ccc(-c3cc(Cl)c(O)c(Cl)c3)nc2c1N[C@H]1CC[C@H](CN(C)C)CC1
# Method in brief: as §1
# ralimetinib = compound: CC(C)(C)Cn1c(N)nc2ccc(-c3[nH]c(C(C)(C)C)nc3-c3ccc(F)cc3)nc21 [ralimetinib]
# Method in brief: as §1
# [2] = compound: CC(C)(O)CC(=O)NCCn1ccc2ncnc(Nc3ccc(Oc4cccc(C(F)(F)F)c4)c(Cl)c3)c21
# Method in brief: as §1
# [3] = compound: CC(C)C1=C2N=C(C=C(N2N=C1)NCC3=CC=CC=C3)NCCCCCCN
# Method in brief: as §1
# [4] = compound: CC1=C(C(CC(=O)N1)C2=CC=C(C=C2)C(F)(F)F)C(=O)NC3=C(C=C4C(=C3)C=NN4)F
# Method in brief: as §1
# [5] = compound: CC1=C(C2=C(C=C1)C(=O)C3=CC=CC=C3N2CCCN)C
# Method in brief: as §1
# [6] = compound: CC1=C(C=C(C=C1)NC(=O)C2=CC(=CC=C2)C(C)(C)C#N)NC3=CC4=C(C=C3)N=CN(C4=O)C
# Method in brief: as §1
# [7] = compound: CC1=C(C=C(C=C1)NC(=O)C2=CC(=CC=C2)N(C)C)NC(=O)C3=CC=C(C=C3)O
# Method in brief: as §1
# [8] = compound: CC1=CC=C(C=C1)SC2=C3C=C(SC3=CN=C2)C(=O)N
# Method in brief: as §1
# vemurafenib = compound: CCCS(=O)(=O)Nc1ccc(F)c(C(=O)c2c[nH]c3ncc(-c4ccc(Cl)cc4)cc23)c1F [vemurafenib]
# Method in brief: as §1
# [9] = compound: CCCS(=O)(=O)Nc1ccc(F)c(C(=O)c2c[nH]c3ncc(Cl)cc23)c1F
# Method in brief: as §1
# barasertib = compound: CCN(CCCOc1ccc2c(Nc3cc(CC(=O)Nc4cccc(F)c4)[nH]n3)ncnc2c1)CCOP(=O)(O)O [barasertib]
# Method in brief: as §1
# [10] = compound: CC[C@@H]1C(=O)N(C)c2cnc(Nc3ccc(C(=O)NC4CCN(C)CC4)cc3OC)nc2N1C1CCCC1
# Method in brief: as §1
# volasertib = compound: CC[C@@H]1C(=O)N(C)c2cnc(Nc3ccc(C(=O)N[C@H]4CC[C@H](N5CCN(CC6CC6)CC5)CC4)cc3OC)nc2N1C(C)C [volasertib]
# Method in brief: as §1
# [11] = compound: CCn1c(C(=O)N(C2CC2)C2CC2)cc2c3c(ncn3C)c(Nc3cc(C)n(C)n3)nc21
# Method in brief: as §1
# [12] = compound: CCn1cc(-c2ccnc3[nH]c(-c4cccc(CN(C)C)c4)cc23)c(-c2ccc(NC(=O)N(C)C)cc2)n1
# Method in brief: as §1
# [13] = compound: CN1CCC(CNc2ccc3ncc(-c4cccc(OC(F)(F)F)c4)n3n2)CC1
# Method in brief: as §1
# saracatinib = compound: CN1CCN(CCOc2cc(OC3CCOCC3)c3c(Nc4c(Cl)ccc5c4OCO5)ncnc3c2)CC1 [saracatinib]
# Method in brief: as §1
# sotrastaurin = compound: CN1CCN(c2nc(C3=C(c4c[nH]c5ccccc45)C(=O)NC3=O)c3ccccc3n2)CC1 [sotrastaurin]
# Method in brief: as §1
Target,log2 fold change (ibrutinib),log2 fold change [1],log2 fold change (ralimetinib),log2 fold change [2],log2 fold change [3],log2 fold change [4],log2 fold change [5],log2 fold change [6],log2 fold change [7],log2 fold change [8],log2 fold change (vemurafenib),log2 fold change [9],log2 fold change (barasertib),log2 fold change [10],log2 fold change (volasertib),log2 fold change [11],log2 fold change [12],log2 fold change [13],log2 fold change (saracatinib),log2 fold change (sotrastaurin)
GABPB1 (UniProt Q06547),inactive: -0.106,inactive: -0.012,inactive: 0.021,inactive: 0.014,inactive: 0,inactive: 0.013,inactive: -0.026,inactive: 0.003,inactive: 0.071,inactive: 0.024,inactive: -0.05,inactive: 0.01,inactive: 0.014,inactive: -0.024,inactive: 0.025,inactive: 0.006,inactive: 0.193,inactive: -0.199,inactive: 0.057,inactive: 0.023
GCN1 (UniProt Q92616),inactive: 0.016,inactive: 0.008,inactive: 0.064,inactive: 0.028,inactive: -0.031,inactive: -0.016,inactive: -0.01,inactive: 0.008,inactive: 0.075,inactive: 0.026,inactive: 0.025,inactive: 0.004,inactive: 0.061,inactive: -0.107,inactive: -0.084,inactive: 0.082,inactive: -0.05,inactive: -0.07,inactive: 0.015,inactive: -0.006
G6PD isoform 2 (UniProt P11413),inactive: -0.006,inactive: 0.001,inactive: 0.023,inactive: 0.012,inactive: 0.018,inactive: -0.02,inactive: 0.045,inactive: -0.002,inactive: 0.024,inactive: 0.003,inactive: 0.003,inactive: 0.008,inactive: -0.029,inactive: -0.02,inactive: -0.061,inactive: 0.016,inactive: 0.063,inactive: -0.04,inactive: 0.032,inactive: -0.017
FPGT (UniProt O14772),inactive: -0.016,inactive: -0.033,inactive: 0.005,inactive: 0.011,inactive: 0.014,inactive: 0.009,inactive: 0.029,inactive: 0.02,inactive: 0.003,inactive: -0.033,inactive: -0.008,inactive: 0.011,inactive: 0.048,inactive: -0.064,inactive: -0.018,inactive: 0.008,active: 0.415,inactive: -0.054,inactive: 0.017,inactive: -0.001
GALNS (UniProt P34059),inactive: 0.033,inactive: 0.015,inactive: 0.013,inactive: -0.015,inactive: 0,inactive: -0.007,inactive: 0.021,inactive: 0.011,inactive: 0.02,inactive: -0.012,inactive: 0.02,inactive: 0.031,inactive: -0.042,inactive: 0.003,inactive: -0.006,inactive: -0.008,inactive: 0.003,inactive: 0.021,inactive: -0.006,inactive: 0.002
GCLM (UniProt P48507),inactive: 0.006,inactive: -0.009,inactive: 0.01,inactive: -0.047,inactive: -0.028,inactive: 0.006,inactive: -0.007,inactive: 0.024,inactive: -0.026,inactive: -0.006,inactive: 0.014,inactive: 0.025,inactive: -0.007,inactive: 0,inactive: -0.015,inactive: -0.013,inactive: -0.011,inactive: -0.012,inactive: 0.011,inactive: -0.022
GAPDH (UniProt P04406),inactive: 0.037,inactive: 0.021,inactive: -0.006,inactive: 0.02,inactive: 0.008,inactive: -0.01,inactive: -0.008,inactive: -0.037,inactive: -0.014,inactive: 0.009,inactive: -0.031,inactive: 0.002,inactive: -0.016,inactive: -0.006,inactive: -0.002,inactive: -0.009,inactive: 0.042,inactive: -0.032,inactive: 0,inactive: -0.01
GABARAPL2 (UniProt P60520),inactive: -0.025,inactive: 0.009,inactive: -0.063,inactive: -0.018,inactive: -0.019,inactive: -0.034,inactive: -0.021,inactive: -0.04,inactive: -0.054,inactive: 0.014,inactive: 0.097,inactive: -0.016,inactive: 0.016,inactive: 0.016,inactive: 0.034,inactive: -0.009,inactive: 0,inactive: 0.01,inactive: -0.013,inactive: -0.016
FTO (UniProt Q9C0B1),inactive: 0.023,inactive: 0.011,inactive: -0.001,inactive: 0.011,inactive: 0.052,inactive: 0.007,inactive: -0.001,inactive: -0.04,inactive: -0.019,inactive: 0.006,inactive: 0.119,inactive: 0.042,inactive: 0.025,inactive: 0.014,inactive: -0.005,inactive: -0.015,inactive: -0.039,inactive: 0.015,inactive: 0.017,inactive: 0.024
GALNT1 (UniProt Q10472),inactive: -0.012,inactive: -0.022,inactive: 0.001,inactive: -0.021,inactive: -0.071,inactive: -0.024,inactive: 0.049,inactive: 0.001,inactive: 0.049,inactive: 0.011,inactive: 0.018,inactive: -0.003,inactive: 0.006,inactive: -0.01,inactive: -0.008,inactive: -0.04,inactive: -0.147,inactive: -0.006,inactive: -0.018,inactive: 0.003
GEMIN2 (UniProt O14893),inactive: -0.044,inactive: 0.016,inactive: 0,inactive: -0.11,inactive: 0.033,inactive: -0.014,inactive: -0.025,inactive: -0.045,inactive: 0.006,inactive: 0.026,inactive: 0.061,inactive: -0.017,inactive: 0.052,inactive: 0.033,inactive: 0.009,inactive: 0.011,inactive: -0.052,inactive: 0.029,inactive: 0.025,inactive: -0.045
GBA (UniProt P04062),inactive: 0.014,inactive: -0.025,inactive: -0.038,inactive: 0.005,inactive: 0.028,inactive: 0.042,inactive: 0.022,inactive: 0.054,inactive: 0.012,inactive: -0.105,inactive: -0.07,inactive: -0.002,inactive: -0.047,inactive: -0.021,inactive: 0.055,inactive: 0.004,inactive: 0.015,inactive: 0.122,inactive: -0.074,inactive: 0.049
GALNT2 (UniProt Q10471),inactive: -0.004,inactive: 0,inactive: 0.006,inactive: 0.022,inactive: -0.005,inactive: 0.015,inactive: 0.031,inactive: -0.041,inactive: -0.012,inactive: -0.016,inactive: 0.013,inactive: 0.014,inactive: 0.003,inactive: -0.014,inactive: 0.002,inactive: 0.042,inactive: 0.065,inactive: 0.035,inactive: -0.004,inactive: 0.016
FOXO3 (UniProt O43524),inactive: -0.015,inactive: 0,inactive: -0.011,inactive: 0.002,inactive: 0.092,inactive: 0.117,inactive: 0.008,inactive: 0.036,inactive: 0.01,inactive: -0.192,inactive: 0.043,inactive: 0.077,inactive: 0.034,inactive: 0.162,inactive: 0.118,inactive: -0.038,inactive: -0.058,inactive: 0.01,inactive: 0.01,inactive: 0.02
FRRS1 (UniProt Q6ZNA5),inactive: -0.028,inactive: 0.001,inactive: -0.001,inactive: -0.05,inactive: -0.077,inactive: 0.138,inactive: -0.033,inactive: -0.013,inactive: 0,inactive: -0.056,inactive: 0.073,inactive: -0.024,inactive: -0.011,inactive: 0.055,inactive: -0.009,inactive: -0.034,inactive: -0.094,inactive: 0.174,inactive: 0.046,inactive: 0.009
FUS (UniProt P35637),inactive: 0,inactive: -0.065,inactive: -0.041,inactive: 0.005,inactive: 0.032,inactive: -0.008,inactive: -0.011,inactive: -0.014,inactive: -0.011,inactive: 0.023,inactive: -0.017,inactive: 0.015,inactive: -0.02,inactive: 0.033,inactive: -0.008,inactive: -0.051,inactive: 0.157,inactive: -0.079,inactive: -0.01,inactive: -0.005

# Part of the list above in another layout:
Target	log2 fold change (ibrutinib)	log2 fold change [1]	log2 fold change (ralimetinib)	log2 fold change [2]	log2 fold change [3]	log2 fold change [4]	log2 fold change [5]	log2 fold change [6]	log2 fold change [7]	log2 fold change [8]	log2 fold change (vemurafenib)	log2 fold change [9]	log2 fold change (barasertib)	log2 fold change [10]	log2 fold change (volasertib)	log2 fold change [11]	log2 fold change [12]	log2 fold change [13]	log2 fold change (saracatinib)	log2 fold change (sotrastaurin)
GABPB1 (UniProt Q06547)	inactive: -0.106	inactive: -0.012	inactive: 0.021	inactive: 0.014	inactive: 0	inactive: 0.013	inactive: -0.026	inactive: 0.003	inactive: 0.071	inactive: 0.024	inactive: -0.05	inactive: 0.01	inactive: 0.014	inactive: -0.024	inactive: 0.025	inactive: 0.006	inactive: 0.193	inactive: -0.199	inactive: 0.057	inactive: 0.023
FTO (UniProt Q9C0B1)	inactive: 0.023	inactive: 0.011	inactive: -0.001	inactive: 0.011	inactive: 0.052	inactive: 0.007	inactive: -0.001	inactive: -0.04	inactive: -0.019	inactive: 0.006	inactive: 0.119	inactive: 0.042	inactive: 0.025	inactive: 0.014	inactive: -0.005	inactive: -0.015	inactive: -0.039	inactive: 0.015	inactive: 0.017	inactive: 0.024
